Experimental data as given in patent US5410024A (Arizona Board of Regents acting on behalf of Arizona State …, priority 1993, dated 1995).

Test: general procedure: solution-phase peptide synthesis
Details: coupling step

Substance	step yield
L-Dolavalyl-L-Valyl-N-Methyl-(S,S,R)-Dolaisoleucyl-(S,R,R)-Dolaproyl-L-Phenylalanineamide-N-(1-adamantane)	89.6%
L-Dolavalyl-L-Valyl-N-Methyl-(S,S,R)-Dolaisoleucyl-(S,R,R)-Dolaproyl-L-Phenylalanineamide-N-(2-benzothiazole)	81.3%
L-Dolavalyl-L-Valyl-N-Methyl-(S,S,R)-Dolaisoleucyl-(S,R,R)-Dolaproyl-L-Phenylalanineamide-N-(2-thiazole)	84.7%
L-Dolavalyl-L-Valyl-N-Methyl-(S,S,R)-Dolaisoleucyl-(S,R,R)-Dolaproyl-L-Phenylalanineamide-N-(3-quinoline)	82.9%
L-Dolavalyl-L-Valyl-N-Methyl-(S,S,R)-Dolaisoleucyl-(S,R,R)-Dolaproyl-L-Phenylalanineamide-N-(methenyl-2-pyridine)	96.8%
L-Dolavalyl-L-Valyl-N-Methyl-(S,S,R)-Dolaisoleucyl-(S,R,R)-Dolaproyl-L-Phenylalanineamide-N-(methenyl-2-thiophene)	95.9%
L-Dolavalyl-L-Valyl-N-Methyl-(S,S,R)-Dolaisoleucyl-(S,R,R)-Dolaproyl-L-Phenylalanineamide-N-[2-(1,3,4-thiadiazole)]	95.4%
L-Dolavalyl-L-Valyl-N-Methyl-(S,S,R)-Dolaisoleucyl-(S,R,R)-Dolaproyl-L-Phenylalanineamide-N-[2-(4-methylthiazole)]	91.1%
L-Dolavalyl-L-Valyl-N-Methyl-(S,S,R)-Dolaisoleucyl-(S,R,R)-Dolaproyl-L-Phenylalanineamide-N-[2-(4-phenylthiazole)]	90.3%
L-Dolavalyl-L-Valyl-N-Methyl-(S,S,R)-Dolaisoleucyl-(S,R,R)-Dolaproyl-L-Phenylalanineamide-N-[2-(6-methoxybenzo-thiazole)]	87.6%
